Reference: patent publication US20090068195A1
No constants are given. Whether binding was seen depends on the method and setting. Some results given as binding are weak or reduced against the parent protein; the word gives no strength. Values belong to the binder of their own block, whether it stands above or below them.

Amino acid sequences for entries named in this document (tags omitted). A change or cut given only in a name is not applied to a line headed by its entry.
UniProt P35225: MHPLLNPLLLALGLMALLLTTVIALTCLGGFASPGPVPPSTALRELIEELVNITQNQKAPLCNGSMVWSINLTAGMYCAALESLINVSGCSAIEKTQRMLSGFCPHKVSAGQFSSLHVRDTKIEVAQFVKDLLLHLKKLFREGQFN

Assays:
[1] = target: recombinant human IL-13-FLAG (human) (UniProt P35225); assay: ELISA, recombinant human IL-13-FLAG captured by anti-FLAG antibody, detection with anti-human IgG (Fc)-HRP
[2] = target: recombinant human IL-13-FLAG (human) (UniProt P35225); assay: competitive ELISA on anti-FLAG coated plate, used to quantify the antibody in sheep serum
[3] = target: FLAG-tagged NHP IL-13 (cynomolgus monkey); assay: competition ELISA: IL-13Ralpha1-Fc coated on the plate, FLAG-tagged NHP IL-13 added with rising MJ2-7; the blocked partner is IL-13Ralpha1-Fc
[4] = target: FLAG-tagged NHP IL-13 (cynomolgus monkey); assay: competition ELISA on coated IL-13Rα1-Fc and IL-13Rα2-Fc
[5] = target: FLAG-tagged NHP IL-13 (cynomolgus monkey); assay: competition ELISA: IL-13Ralpha2-Fc coated on the plate, FLAG-tagged NHP IL-13 added with rising MJ2-7; the blocked partner is IL-13Ralpha2-Fc

binding [1]: binds
B1: humanized MJ2-7 v.2-11 (antibody, human IgG1, kappa, V domains shown)
VH: EVQLVESGGGLVQPGGSLRLSCAASGFNIKDTYIHWVRQAPGKGLEWIGRIDPANDNIKYDPKFQGRFTISADNAKNSAYLQMNSLRAEDTAVYYCARSEENWYDFFDYWGQGTLVTVSS
VL: DIQMTQSPSSLSASVGDRVTITCRSSQSIVHSNGNTYLEWYQQKPGKAPKLLIYKVSNRFSGVPSRFSGSGSGTDFTLTISSLQPEDFATYYCFQGSHIPYTFGGGTKVEIKR

binding [2]: binds
B2: humanized 13.2v.2 (antibody, V domains shown)
VH: EVQLVESGGGLVQPGGSLRLSCAASGFTFISYAMSWVRQAPGKGLEWVASISSGGNTYYPDSVKGRFTISRDNAKNSLYLQMNSLRAEDTAVYYCARLDGYYFGFAYWGQGTLVTVSS
VL: DIQMTQSPSSLSASVGDRVTITCKASESVDNYGKSLMHWYQQKPGKAPKLLIYRASNLESGVPSRFSGSGSGTDFTLTISSLQPEDFATYYCQQSNEDPWTFGGGTKVEIK

binding [3]: binds | binding [4]: binds | binding [5]: binds
B3: mouse monoclonal antibody MJ 2-7 (antibody, mouse IgG1, V domains shown)
VH: EVQLQQSGAELVKPGASVKLSCTGSGFNIKDTYIHWVKQRPEQGLEWIGRIDPANDNIKYDPKFQGKATITADTSSNTAYLQLNSLTSEDTAVYYCARSEENWYDFFDYWGQGTTLTVSS
VL: DVLMTQTPLSLPVSLGDQASISCRSSQSIVHSNGNTYLEWYLQKPGQSPKLLIYKVSNRFSGVPDRFSGSGSGTDFTLKISRVEAEDLGVYYCFQGSHIPYTFGGGTKLEIK
